Changes are numbered by the printed parent chain. No constants are given. Whether binding was seen depends on the method and setting. Some results given as binding are weak or reduced against the parent protein; the word gives no strength.
B1: SC-184_110 (antibody, IgG1a, V domains shown)
VH: DVQLVESGGDLVKPGGSLRLTCVASGLSLTSASMSWVRQAPGKGLQWVSTIYSNGGTYYTDSVKGRFTISKDNAENTLYLQMNNLKTEDTATYYCASIYYYEAEYLHWYFDFWGQGALVTVSS
VL: EIQMTQSPTSLSASVGDRVTITCRASEGISKNLSWYQQTPGKAPKLLIYATDNLHSGVPSRFSGSGSGTDFTLTISSLQPEDFATYYCQQGWKWPLTFGGGTKLEIT
B2: SC-184_110-Arg (antibody, V domains shown)
VH: B1 VH with G55R
VL: B1 VL
B3: felinized clone 101 (antibody, V domains shown)
VH: B1 VH with A32S, E102D, E104D
VL: B1 VL with K31N, D52S, W92Y
B4: canine 2166 chimeric antibody (antibody, V domains shown)
VH: QVQLKESGPGLVQPSQTLSLTCTVSGLSLTSNSVSWIRQPPGKGLEWMGVIWSNGGTDYNSAIESRLSINRDTSKSQVFLKMNSLQPEDTAMYFCASIYYYDADYLHWYFDFWGPGTMVTVSS
VL: DIQMTQSPASLSASLGETVSIECLASEGISNSLAWYQLKPGKSPQFLIYATSSLQDGVPSRFSGSGSGTQYSLKISGMQPEDEGVYYCQQGYKFPLTFGSGTKLKIKR

Columns and labels:
[1] = molecular target: canine NGF tagged at the C-terminus with the Flag tag (canine); experiment: SPR (Biacore T200), antibody captured on an anti-feline coupled CM5 chip, NGF as analyte at 50, 25, 12.5, 6.25, 3.125 and 1.56 nM
[2] = molecular target: canine NGF tagged at the C-terminus with the Flag tag (canine); experiment: SPR

binding [1]	binding [2]	Binder
binds	–	B1
binds	–	B2
–	binds	B3
–	binds	B4

Reference: patent US20250011410A1
